Measurements from the supplement of paper PMC10849652.
Some of the results follow.

Chains of the proteins cited; added tags and fusions are not shown. Lines headed by an entry give the natural chain unless they say otherwise; changes in a name come on top.
UniProt Q9Y639: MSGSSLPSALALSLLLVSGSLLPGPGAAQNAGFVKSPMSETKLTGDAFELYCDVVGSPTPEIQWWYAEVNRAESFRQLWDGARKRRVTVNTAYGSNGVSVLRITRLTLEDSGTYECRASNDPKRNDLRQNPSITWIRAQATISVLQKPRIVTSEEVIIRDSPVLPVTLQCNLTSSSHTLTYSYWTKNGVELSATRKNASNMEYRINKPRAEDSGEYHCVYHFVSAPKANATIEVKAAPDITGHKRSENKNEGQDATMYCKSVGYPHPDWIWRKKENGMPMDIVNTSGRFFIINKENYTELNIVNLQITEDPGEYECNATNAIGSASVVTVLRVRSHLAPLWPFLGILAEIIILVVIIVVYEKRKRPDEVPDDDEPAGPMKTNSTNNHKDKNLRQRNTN
UniProt P19838: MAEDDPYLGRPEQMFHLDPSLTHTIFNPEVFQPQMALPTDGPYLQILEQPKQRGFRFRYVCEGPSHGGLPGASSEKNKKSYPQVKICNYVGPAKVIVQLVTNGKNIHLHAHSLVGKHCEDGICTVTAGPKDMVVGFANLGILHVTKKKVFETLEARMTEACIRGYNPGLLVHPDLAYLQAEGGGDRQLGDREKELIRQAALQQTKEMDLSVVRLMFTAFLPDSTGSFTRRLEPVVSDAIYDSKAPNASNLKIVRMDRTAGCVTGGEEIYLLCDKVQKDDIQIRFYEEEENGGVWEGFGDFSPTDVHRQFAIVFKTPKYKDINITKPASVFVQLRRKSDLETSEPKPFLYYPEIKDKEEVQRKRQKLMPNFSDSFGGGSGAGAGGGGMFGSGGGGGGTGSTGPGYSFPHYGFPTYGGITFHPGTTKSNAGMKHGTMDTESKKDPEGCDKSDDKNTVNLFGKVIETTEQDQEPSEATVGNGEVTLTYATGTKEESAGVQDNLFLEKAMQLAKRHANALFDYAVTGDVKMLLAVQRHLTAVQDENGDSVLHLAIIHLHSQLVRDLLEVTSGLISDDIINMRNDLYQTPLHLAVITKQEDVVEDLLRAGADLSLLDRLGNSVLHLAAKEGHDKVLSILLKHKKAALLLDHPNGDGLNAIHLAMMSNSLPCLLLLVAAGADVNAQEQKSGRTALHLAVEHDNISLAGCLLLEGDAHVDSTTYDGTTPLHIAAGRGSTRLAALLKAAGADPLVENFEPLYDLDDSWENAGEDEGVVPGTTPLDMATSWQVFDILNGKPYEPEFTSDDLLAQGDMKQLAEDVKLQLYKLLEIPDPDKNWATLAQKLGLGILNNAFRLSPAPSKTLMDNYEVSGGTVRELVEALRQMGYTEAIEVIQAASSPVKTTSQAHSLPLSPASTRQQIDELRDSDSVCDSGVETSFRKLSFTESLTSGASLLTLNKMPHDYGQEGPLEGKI
UniProt P16083: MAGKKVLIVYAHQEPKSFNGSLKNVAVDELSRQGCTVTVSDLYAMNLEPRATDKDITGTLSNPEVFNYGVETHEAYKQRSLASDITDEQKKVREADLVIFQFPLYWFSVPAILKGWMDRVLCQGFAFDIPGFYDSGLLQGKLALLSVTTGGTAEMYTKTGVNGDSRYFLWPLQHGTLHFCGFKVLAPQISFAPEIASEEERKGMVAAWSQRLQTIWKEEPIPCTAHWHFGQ
UniProt Q9NVX2: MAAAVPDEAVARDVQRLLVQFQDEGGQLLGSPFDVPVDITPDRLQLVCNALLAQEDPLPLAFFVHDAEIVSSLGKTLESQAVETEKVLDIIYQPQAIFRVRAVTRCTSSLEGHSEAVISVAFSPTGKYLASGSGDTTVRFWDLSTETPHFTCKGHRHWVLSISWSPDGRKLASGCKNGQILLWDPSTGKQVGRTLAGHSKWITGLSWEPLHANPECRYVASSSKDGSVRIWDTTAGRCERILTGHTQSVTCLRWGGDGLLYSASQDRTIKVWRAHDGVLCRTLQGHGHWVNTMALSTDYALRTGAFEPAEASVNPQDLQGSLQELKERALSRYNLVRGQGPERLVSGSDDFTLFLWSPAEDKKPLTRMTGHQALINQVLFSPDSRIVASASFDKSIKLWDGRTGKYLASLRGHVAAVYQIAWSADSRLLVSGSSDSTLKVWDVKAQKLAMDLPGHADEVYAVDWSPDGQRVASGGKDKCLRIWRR
UniProt Q9UMY1: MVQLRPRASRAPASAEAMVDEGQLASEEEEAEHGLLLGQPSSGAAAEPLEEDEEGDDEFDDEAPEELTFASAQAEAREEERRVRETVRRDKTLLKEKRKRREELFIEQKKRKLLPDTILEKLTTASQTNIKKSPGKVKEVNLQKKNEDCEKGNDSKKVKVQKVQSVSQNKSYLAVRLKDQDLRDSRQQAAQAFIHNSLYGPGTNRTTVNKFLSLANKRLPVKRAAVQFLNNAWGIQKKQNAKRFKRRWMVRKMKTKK
UniProt Q9Y2I1: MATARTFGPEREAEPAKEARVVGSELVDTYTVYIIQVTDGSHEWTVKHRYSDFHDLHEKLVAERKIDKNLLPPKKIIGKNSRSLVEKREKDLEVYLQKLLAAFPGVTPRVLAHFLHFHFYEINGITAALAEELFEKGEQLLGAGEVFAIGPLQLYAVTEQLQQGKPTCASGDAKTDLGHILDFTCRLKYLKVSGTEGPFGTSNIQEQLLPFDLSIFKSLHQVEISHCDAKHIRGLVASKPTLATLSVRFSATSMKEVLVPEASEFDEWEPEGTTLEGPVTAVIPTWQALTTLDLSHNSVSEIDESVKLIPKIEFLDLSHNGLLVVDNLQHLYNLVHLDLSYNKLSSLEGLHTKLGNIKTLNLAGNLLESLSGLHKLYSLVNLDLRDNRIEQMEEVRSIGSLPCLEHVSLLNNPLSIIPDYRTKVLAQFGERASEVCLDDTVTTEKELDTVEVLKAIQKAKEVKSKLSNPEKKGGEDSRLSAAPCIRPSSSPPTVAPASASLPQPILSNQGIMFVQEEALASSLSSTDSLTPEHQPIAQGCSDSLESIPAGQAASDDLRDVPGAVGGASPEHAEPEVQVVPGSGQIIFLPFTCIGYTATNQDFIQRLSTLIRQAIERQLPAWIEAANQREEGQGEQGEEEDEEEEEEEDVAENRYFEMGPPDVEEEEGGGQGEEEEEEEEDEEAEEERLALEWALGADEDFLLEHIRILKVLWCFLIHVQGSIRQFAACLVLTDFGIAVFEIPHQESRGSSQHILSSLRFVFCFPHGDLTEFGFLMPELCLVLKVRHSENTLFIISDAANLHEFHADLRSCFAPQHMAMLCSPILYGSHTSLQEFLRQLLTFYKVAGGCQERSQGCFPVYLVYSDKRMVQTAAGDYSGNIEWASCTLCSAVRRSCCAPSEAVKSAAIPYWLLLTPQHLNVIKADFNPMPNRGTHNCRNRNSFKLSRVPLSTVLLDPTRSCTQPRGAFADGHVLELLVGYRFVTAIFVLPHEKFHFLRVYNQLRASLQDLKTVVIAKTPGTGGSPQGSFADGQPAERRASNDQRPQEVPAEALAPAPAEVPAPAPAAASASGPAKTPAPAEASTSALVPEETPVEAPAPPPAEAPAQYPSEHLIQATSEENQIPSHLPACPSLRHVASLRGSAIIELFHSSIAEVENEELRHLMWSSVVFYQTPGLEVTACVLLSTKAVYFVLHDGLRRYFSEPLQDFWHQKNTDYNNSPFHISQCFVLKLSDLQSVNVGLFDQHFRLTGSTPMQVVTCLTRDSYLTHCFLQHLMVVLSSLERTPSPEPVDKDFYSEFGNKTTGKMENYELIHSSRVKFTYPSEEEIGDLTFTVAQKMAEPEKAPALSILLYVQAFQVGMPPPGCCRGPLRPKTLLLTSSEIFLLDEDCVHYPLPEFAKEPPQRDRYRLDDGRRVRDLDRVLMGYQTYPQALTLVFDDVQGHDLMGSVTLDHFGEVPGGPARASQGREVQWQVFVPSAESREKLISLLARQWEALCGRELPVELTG
UniProt P46459: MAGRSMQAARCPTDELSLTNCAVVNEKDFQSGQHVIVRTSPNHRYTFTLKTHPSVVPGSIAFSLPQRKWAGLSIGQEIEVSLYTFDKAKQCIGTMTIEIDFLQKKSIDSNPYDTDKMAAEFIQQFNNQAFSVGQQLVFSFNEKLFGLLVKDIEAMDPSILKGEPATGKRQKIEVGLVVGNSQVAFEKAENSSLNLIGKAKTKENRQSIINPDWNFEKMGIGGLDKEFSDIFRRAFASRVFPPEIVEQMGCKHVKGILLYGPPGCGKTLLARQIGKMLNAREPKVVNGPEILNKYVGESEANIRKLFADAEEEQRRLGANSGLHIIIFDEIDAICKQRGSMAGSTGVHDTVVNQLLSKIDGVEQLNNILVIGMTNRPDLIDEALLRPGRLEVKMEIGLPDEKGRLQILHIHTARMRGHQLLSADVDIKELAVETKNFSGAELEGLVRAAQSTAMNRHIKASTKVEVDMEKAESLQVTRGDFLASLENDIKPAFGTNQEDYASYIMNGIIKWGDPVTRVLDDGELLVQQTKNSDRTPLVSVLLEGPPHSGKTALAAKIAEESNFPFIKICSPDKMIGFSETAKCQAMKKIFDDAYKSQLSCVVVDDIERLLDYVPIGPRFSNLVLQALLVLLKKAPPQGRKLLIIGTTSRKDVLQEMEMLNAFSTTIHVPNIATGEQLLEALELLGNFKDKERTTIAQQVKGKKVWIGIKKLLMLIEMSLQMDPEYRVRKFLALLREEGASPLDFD
UniProt Q9BZQ8: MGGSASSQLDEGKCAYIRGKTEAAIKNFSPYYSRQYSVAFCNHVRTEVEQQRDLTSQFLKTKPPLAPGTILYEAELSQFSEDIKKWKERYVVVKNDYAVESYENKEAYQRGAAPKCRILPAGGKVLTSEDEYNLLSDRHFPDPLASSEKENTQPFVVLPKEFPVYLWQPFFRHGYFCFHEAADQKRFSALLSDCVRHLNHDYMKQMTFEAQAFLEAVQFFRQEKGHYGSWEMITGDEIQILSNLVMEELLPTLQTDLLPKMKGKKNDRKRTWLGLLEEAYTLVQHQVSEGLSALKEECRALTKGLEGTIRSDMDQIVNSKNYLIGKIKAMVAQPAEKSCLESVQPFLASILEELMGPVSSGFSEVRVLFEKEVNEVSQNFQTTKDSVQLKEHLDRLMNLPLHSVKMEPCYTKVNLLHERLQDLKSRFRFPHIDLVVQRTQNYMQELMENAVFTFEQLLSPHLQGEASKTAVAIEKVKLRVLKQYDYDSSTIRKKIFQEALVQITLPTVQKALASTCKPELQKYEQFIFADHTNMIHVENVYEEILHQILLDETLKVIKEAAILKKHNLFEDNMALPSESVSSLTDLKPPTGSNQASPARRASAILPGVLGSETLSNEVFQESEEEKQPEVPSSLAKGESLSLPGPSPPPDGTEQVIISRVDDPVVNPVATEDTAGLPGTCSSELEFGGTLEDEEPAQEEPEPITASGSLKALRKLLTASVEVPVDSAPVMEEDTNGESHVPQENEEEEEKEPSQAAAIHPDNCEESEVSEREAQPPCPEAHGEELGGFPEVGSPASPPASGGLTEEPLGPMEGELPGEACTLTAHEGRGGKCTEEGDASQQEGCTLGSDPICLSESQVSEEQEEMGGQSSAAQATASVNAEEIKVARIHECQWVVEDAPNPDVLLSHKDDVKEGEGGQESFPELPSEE
UniProt P40261: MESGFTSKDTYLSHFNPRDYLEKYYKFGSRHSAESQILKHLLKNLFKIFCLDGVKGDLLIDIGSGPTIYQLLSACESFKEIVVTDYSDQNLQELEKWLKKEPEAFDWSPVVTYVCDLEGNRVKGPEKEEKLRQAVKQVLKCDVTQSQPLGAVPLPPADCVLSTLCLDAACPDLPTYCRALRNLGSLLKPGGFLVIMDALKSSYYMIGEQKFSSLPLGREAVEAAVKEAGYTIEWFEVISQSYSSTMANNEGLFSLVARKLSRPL
UniProt P46087: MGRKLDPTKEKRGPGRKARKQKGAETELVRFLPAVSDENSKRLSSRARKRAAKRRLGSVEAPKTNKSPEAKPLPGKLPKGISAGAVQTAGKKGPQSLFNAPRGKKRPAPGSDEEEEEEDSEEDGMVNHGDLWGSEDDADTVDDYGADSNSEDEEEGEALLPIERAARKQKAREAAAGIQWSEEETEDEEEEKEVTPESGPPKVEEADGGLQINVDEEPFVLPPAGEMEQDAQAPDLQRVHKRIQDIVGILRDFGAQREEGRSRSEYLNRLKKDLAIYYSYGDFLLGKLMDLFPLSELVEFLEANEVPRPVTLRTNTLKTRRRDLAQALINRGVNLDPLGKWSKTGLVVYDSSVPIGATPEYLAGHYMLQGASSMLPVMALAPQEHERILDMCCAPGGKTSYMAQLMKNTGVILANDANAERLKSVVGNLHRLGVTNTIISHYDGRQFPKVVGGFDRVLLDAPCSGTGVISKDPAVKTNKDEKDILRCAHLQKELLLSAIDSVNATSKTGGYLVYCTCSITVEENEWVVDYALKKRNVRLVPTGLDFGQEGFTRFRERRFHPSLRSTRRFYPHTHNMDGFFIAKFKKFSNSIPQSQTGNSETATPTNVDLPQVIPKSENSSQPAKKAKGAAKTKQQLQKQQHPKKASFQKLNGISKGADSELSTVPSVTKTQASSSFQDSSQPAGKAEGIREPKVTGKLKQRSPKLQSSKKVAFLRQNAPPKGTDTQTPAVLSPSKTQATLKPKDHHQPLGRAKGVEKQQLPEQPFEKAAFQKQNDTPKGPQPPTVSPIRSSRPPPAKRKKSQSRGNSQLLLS

Key:
Experiment in all cases: log2 fold change, soluble protein after heating vs DMSO (PISA); higher = thermal stabilisation; K562 cells, 10 uM, 30 min; active = over 0.2 and 3.5 SD of the protein, either way, in both replicates (recomputed)
[1] = compound: COC1=CC=C(C=C1)CN2C=CC3=C2C=C(C=C3)C(=O)NO
How it was run: (§1)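 For each measurement, 10 μM compound was applied for 30 min to K562 cells at 2×10^6 cells/mL. Aliquots were heated for 3 min across 48°C-58°C, pooled, and extracted in PBS with 0.5% NP-40 at 4°C; the supernatant after 21,000xg for 90 min was soluble protein. This was quantified by TMTpro 16plex LC-MS/MS with channel sums equalised, and thermal stability was reported relative to control samples from duplicates, on a log2 fold-change scale.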

filanesib = compound: CON(C)C(=O)N1N=C(c2cc(F)ccc2F)S[C@@]1(CCCN)c1ccccc1 [filanesib]
How it was run: as §1

zotarolimus = compound: CO[C@H]1C[C@@H]2CC[C@@H](C)[C@@](O)(O2)C(=O)C(=O)N2CCCC[C@H]2C(=O)O[C@H]([C@H](C)C[C@@H]2CC[C@H](n3cnnn3)[C@H](OC)C2)CC(=O)[C@H](C)/C=C(\C)[C@@H](O)[C@@H](OC)C(=O)[C@H](C)C[C@H](C)/C=C/C=C/C=C/1C [zotarolimus]
How it was run: as §1

idasanutlin = compound: COc1cc(C(=O)O)ccc1NC(=O)[C@@H]1N[C@@H](CC(C)(C)C)[C@](C#N)(c2ccc(Cl)cc2F)[C@H]1c1cccc(Cl)c1F [idasanutlin]
How it was run: as §1

alisertib = compound: COc1cc(Nc2ncc3c(n2)-c2ccc(Cl)cc2C(c2c(F)cccc2OC)=NC3)ccc1C(=O)O [alisertib]
How it was run: as §1

[2] = compound: COc1cc2nc(-c3cc(F)ccc3O)nc(N[C@@H]3CNC[C@H]3C(C)(C)O)c2cc1OC
How it was run: as §1

gefitinib = compound: COc1cc2ncnc(Nc3ccc(F)c(Cl)c3)c2cc1OCCCN1CCOCC1 [gefitinib]
How it was run: as §1

[3] = compound: COc1cccc2cc(-c3nc([C@H]4CC[C@H](C(=O)O)CC4)n4ncnc(N)c34)[nH]c12
How it was run: as §1

lapatinib = compound: CS(=O)(=O)CCNCc1ccc(-c2ccc3ncnc(Nc4ccc(OCc5cccc(F)c5)c(Cl)c4)c3c2)o1 [lapatinib]
How it was run: as §1

pictilisib = compound: CS(=O)(=O)N1CCN(Cc2cc3nc(-c4cccc5[nH]ncc45)nc(N4CCOCC4)c3s2)CC1 [pictilisib]
How it was run: as §1

[4] = compound: CS(=O)(=O)c1ccc(-c2cnc(N)c(C(=O)Nc3ccccc3)n2)cc1
How it was run: as §1

crizotinib = compound: C[C@@H](Oc1cc(-c2cnn(C3CCNCC3)c2)cnc1N)c1c(Cl)ccc(F)c1Cl [crizotinib]
How it was run: as §1

[5] = compound: C[C@@H]1COCCN1C2=NC(=NC(=C2)C3(CC3)S(=O)(=O)C)C4=C5C=CNC5=CC=C4
How it was run: as §1

[6] = compound: C[C@H](C1=CC=C(C=C1)C(=O)NC2=C3C=CNC3=NC=C2)N
How it was run: as §1

duvelisib = compound: C[C@H](Nc1ncnc2nc[nH]c12)c1cc2cccc(Cl)c2c(=O)n1-c1ccccc1 [duvelisib]
How it was run: as §1

gandotinib = compound: Cc1cc(Nc2cc(CN3CCOCC3)c3nc(C)c(Cc4ccc(Cl)cc4F)n3n2)n[nH]1 [gandotinib]
How it was run: as §1

tozasertib = compound: Cc1cc(Nc2cc(N3CCN(C)CC3)nc(Sc3ccc(NC(=O)C4CC4)cc3)n2)n[nH]1 [tozasertib]
How it was run: as §1

[7] = compound: Cc1cc(SCc2sc(-c3ccc(C(F)(F)F)cc3)nc2C)ccc1OCC(=O)O
How it was run: as §1

doramapimod = compound: Cc1ccc(-n2nc(C(C)(C)C)cc2NC(=O)Nc2ccc(OCCN3CCOCC3)c3ccccc23)cc1 [doramapimod]
How it was run: as §1

ispinesib = compound: Cc1ccc(C(=O)N(CCCN)[C@@H](c2nc3cc(Cl)ccc3c(=O)n2Cc2ccccc2)C(C)C)cc1 [ispinesib]
How it was run: as §1

Measured: log2 fold change

NELFE isoform 3 (UniProt P18615)
inactive: [1] -0.002 | filanesib -0.006 | zotarolimus -0.048 | idasanutlin 0.064 | alisertib -0.008 | [2] -0.014 | gefitinib -0.006 | [3] 0.012 | lapatinib -0.006 | pictilisib 0.193 | [4] -0.051 | crizotinib 0 | [5] -0.006 | [6] -0.025 | duvelisib 0.037 | gandotinib 0.065 | tozasertib -0.004 | [7] -0.021 | doramapimod -0.041 | ispinesib 0.048

NPTN (UniProt Q9Y639)
inactive: [1] 0.173 | filanesib 0.132 | zotarolimus -0.03 | idasanutlin 0.109 | alisertib 0.019 | [2] 0.132 | gefitinib 0.036 | [3] 0.141 | lapatinib -0.038 | pictilisib 0.038 | [4] 0.052 | crizotinib 0.115 | [5] 0.227 | [6] -0.051 | duvelisib 0.109 | gandotinib -0.144 | tozasertib -0.056 | [7] -0.034 | doramapimod -0.018 | ispinesib 0.179

NOC2L (UniProt Q9Y3T9)
inactive: [1] -0.053 | filanesib 0.071 | zotarolimus -0.009 | idasanutlin 0.116 | alisertib 0.022 | [2] 0.039 | gefitinib 0.031 | [3] -0.023 | lapatinib -0.185 | pictilisib 0.071 | [4] 0.035 | crizotinib 0.034 | [5] 0.031 | [6] 0.01 | duvelisib 0.012 | gandotinib -0.044 | tozasertib 0.022 | [7] 0.099 | doramapimod -0.039

NSMAF (UniProt Q92636)
inactive: [1] 0.046 | filanesib -0.025 | zotarolimus 0.014 | idasanutlin -0.004 | alisertib -0.037 | [2] 0.064 | gefitinib -0.02 | [3] 0.028 | lapatinib 0.022 | pictilisib 0.036 | [4] -0.003 | crizotinib -0.027 | [5] -0.027 | [6] 0 | duvelisib 0.09 | gandotinib 0.081 | tozasertib -0.007 | [7] 0.067 | doramapimod 0.041 | ispinesib -0.033

NPM1 (UniProt P06748)
inactive: [1] -0.014 | filanesib 0.392 | zotarolimus 0.074 | idasanutlin 0.176 | alisertib -0.092 | [2] -0.137 | gefitinib -0.002 | [3] -0.113 | lapatinib 0.063 | pictilisib -0.143 | [4] -0.094 | crizotinib 0.005 | [5] -0.311 | [6] 0.299 | duvelisib -0.159 | gandotinib 0.114 | tozasertib 0.001 | [7] -0.009 | doramapimod 0.13 | ispinesib -0.099

Reprinted from the listing (two entries):
NELFE isoform 3 (UniProt P18615)
inactive: [1] -0.002 | filanesib -0.006 | zotarolimus -0.048 | idasanutlin 0.064 | alisertib -0.008 | [2] -0.014 | gefitinib -0.006 | [3] 0.012 | lapatinib -0.006 | pictilisib 0.193 | [4] -0.051 | crizotinib 0 | [5] -0.006 | [6] -0.025 | duvelisib 0.037 | gandotinib 0.065 | tozasertib -0.004 | [7] -0.021 | doramapimod -0.041 | ispinesib 0.048

NPTN (UniProt Q9Y639)
inactive: [1] 0.173 | filanesib 0.132 | zotarolimus -0.03 | idasanutlin 0.109 | alisertib 0.019 | [2] 0.132 | gefitinib 0.036 | [3] 0.141 | lapatinib -0.038 | pictilisib 0.038 | [4] 0.052 | crizotinib 0.115 | [5] 0.227 | [6] -0.051 | duvelisib 0.109 | gandotinib -0.144 | tozasertib -0.056 | [7] -0.034 | doramapimod -0.018 | ispinesib 0.179

Next part.

NOL12 (UniProt Q9UGY1)
inactive: [1] -0.119 | filanesib 0.595 | zotarolimus -0.019 | idasanutlin 0.182 | alisertib -0.132 | [2] 0.08 | gefitinib -0.027 | [3] -0.149 | lapatinib 0.098 | pictilisib -0.004 | [4] 0.093 | crizotinib 0.038 | [5] -0.456 | [6] 0.449 | duvelisib -0.219 | gandotinib 0.322 | tozasertib 0.119 | [7] 0.024 | doramapimod 0.152 | ispinesib -0.016

NFKBIE (UniProt O00221)
inactive: [1] 0.024 | filanesib -0.093 | zotarolimus -0.01 | idasanutlin 0.044 | alisertib 0.207 | [2] 0.026 | gefitinib -0.019 | [3] 0.02 | lapatinib 0.071 | pictilisib -0.018 | [4] -0.022 | crizotinib -0.019 | [5] -0.012 | [6] 0.075 | duvelisib 0.003 | gandotinib -0.087 | tozasertib 0.049 | [7] 0.017 | doramapimod -0.026 | ispinesib 0.062

NFKB1 isoform 2 (UniProt P19838)
inactive: [1] 0.08 | filanesib 0.068 | zotarolimus -0.056 | idasanutlin 0.018 | alisertib 0.075 | [2] 0.015 | gefitinib 0.027 | [3] -0.018 | lapatinib 0.138 | pictilisib 0.041 | [4] 0.058 | crizotinib -0.004 | [5] -0.112 | [6] 0.176 | duvelisib 0.027 | gandotinib -0.018 | tozasertib 0.119 | [7] 0.123 | ispinesib -0.056

NQO2 (UniProt P16083)
inactive: [1] -0.063 | filanesib -0.028 | zotarolimus 0.019 | idasanutlin -0.013 | alisertib -0.055 | [2] 0.039 | gefitinib -0.008 | [3] 0.087 | lapatinib -0.026 | pictilisib -0.023 | [4] 0 | crizotinib 0.088 | [5] 0.023 | [6] -0.141 | duvelisib 0.048 | gandotinib 0.055 | tozasertib -0.004 | [7] -0.034 | doramapimod 0 | ispinesib 0.015

NLE1 (UniProt Q9NVX2)
inactive: [1] 0.004 | filanesib -0.042 | zotarolimus 0.022 | idasanutlin -0.058 | alisertib -0.052 | [2] -0.011 | gefitinib 0.021 | [3] 0.057 | lapatinib 0.035 | pictilisib 0.074 | [4] 0.011 | crizotinib 0.02 | [5] 0.018 | [6] -0.077 | duvelisib 0.03 | gandotinib -0.006 | tozasertib 0.017 | [7] 0.004 | doramapimod -0.027 | ispinesib 0.088

NOL7 (UniProt Q9UMY1)
inactive: [1] -0.089 | filanesib 0.524 | zotarolimus -0.024 | idasanutlin 0.157 | alisertib -0.119 | [2] -0.086 | gefitinib -0.006 | [3] -0.142 | lapatinib 0.169 | pictilisib -0.095 | [4] -0.054 | crizotinib 0.065 | [5] -0.661 | [6] 0.415 | gandotinib 0.124 | [7] 0.003 | doramapimod 0.187 | ispinesib -0.052

NISCH (UniProt Q9Y2I1)
active: ispinesib -0.408
inactive: [1] -0.008 | filanesib -0.029 | zotarolimus -0.022 | idasanutlin -0.015 | alisertib 0.023 | [2] -0.119 | gefitinib -0.014 | [3] 0.106 | lapatinib 0.041 | pictilisib -0.061 | [4] -0.026 | crizotinib -0.284 | [5] 0.035 | [6] 0.047 | gandotinib -0.4 | [7] 0.126 | doramapimod 0.054

NSF (UniProt P46459)
inactive: [1] -0.002 | filanesib -0.051 | zotarolimus 0.028 | idasanutlin -0.054 | alisertib -0.021 | [2] 0.048 | gefitinib -0.037 | [3] -0.007 | lapatinib 0 | pictilisib 0.03 | [4] 0.028 | crizotinib -0.078 | [5] 0.047 | [6] 0.019 | duvelisib 0.015 | gandotinib -0.07 | tozasertib -0.008 | [7] 0.075 | doramapimod -0.029 | ispinesib -0.09

NIBAN1 (UniProt Q9BZQ8)
inactive: [1] 0.055 | filanesib 0.028 | zotarolimus 0.028 | idasanutlin -0.007 | alisertib -0.052 | [2] -0.043 | gefitinib -0.032 | [3] -0.062 | lapatinib -0.015 | pictilisib 0 | [4] 0.02 | crizotinib -0.296 | [5] 0.014 | [6] 0.097 | gandotinib -0.143 | [7] 0.116 | doramapimod 0.001 | ispinesib -0.148

NNMT (UniProt P40261)
inactive: [1] -0.057 | filanesib -0.163 | zotarolimus -0.001 | idasanutlin -0.076 | alisertib -0.06 | [2] 0.216 | gefitinib 0.041 | [3] 0.017 | lapatinib -0.019 | pictilisib 0.06 | [4] 0.039 | crizotinib -0.08 | [5] 0.085 | [6] -0.06 | gandotinib -0.002 | [7] -0.09 | doramapimod 0

NOP2 isoform 4 (UniProt P46087)
inactive: [1] -0.053 | filanesib 0.651 | zotarolimus 0.118 | idasanutlin 0.419 | alisertib -0.065 | [2] 0.375 | gefitinib -0.065 | [3] -0.118 | lapatinib 0.456 | pictilisib -0.039 | [4] 0 | crizotinib -0.127 | [5] -0.25 | [6] 0.673 | gandotinib 0.231 | [7] -0.022 | doramapimod 0.219 | ispinesib 0.163
